Laboratory results reported in US12473352 (SUN YAT SEN UNIVERSITY, dated 2025).
Results are given in words; binding and its absence hold for the method and conditions named. Some binding calls cover weakened binding; strength is not graded here.

T1: human IFP35 protein (human, UniProt P80217 1-286, limits assumed)
T1 construct: also called interferon-induced protein 35; IFI35
T1 chain: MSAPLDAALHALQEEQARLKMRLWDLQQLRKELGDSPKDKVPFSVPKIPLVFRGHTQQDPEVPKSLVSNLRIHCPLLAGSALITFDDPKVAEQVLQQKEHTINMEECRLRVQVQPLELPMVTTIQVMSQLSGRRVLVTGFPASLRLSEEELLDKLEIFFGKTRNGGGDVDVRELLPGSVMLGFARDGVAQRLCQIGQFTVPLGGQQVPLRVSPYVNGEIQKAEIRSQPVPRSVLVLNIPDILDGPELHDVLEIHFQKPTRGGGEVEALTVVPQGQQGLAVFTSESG


How the values were obtained:
human IFP35 protein [1] = biological target: T1, human IFP35 protein; experiment: ELISA (OD450) on human IFP35 protein
human IFP35 protein [2] = biological target: T1, human IFP35 protein; experiment: antigen binding test of FIG. 11
human IFP35 protein [3] = biological target: T1, human IFP35 protein; experiment: ELISA (OD450) on antigen IFP35

binding (human IFP35 protein [1]) | binding (human IFP35 protein [2]) | binding (human IFP35 protein [3]) | Binder
binds | – | – | 35NIDmAb (antibody, V domains shown, Mouse monoclonal antibody from hybridoma ascites; also called AE001-VH+VL; AE001-VH+VL (35NIDmAb)) VH: VQLVESGPELKKPGETVKISCKASGYTFTNYGMNWVKQAPGKGLKWMGWINTYTGEPTFADDFKGRFAFSLETSASTAYLQINNLKNEDTATYFCARYGYSWAMDYWGQGTSVTVSS VL: DIVMTQSPAIMSASPGEKVTMTCSASSSVSYMHWYQQKSGTSPKRWIYDTSKLASGVPARFSGSGSGTSYSLTISSMEAEDAATYYCQQWSSNPPITFGAGTKLEIK
– | – | binds | AE001-6 (antibody, human IgG1, V domains shown, Human IgG1; CDR mutant of AE001-H3+L3; also called AE001-6Hc + Lc; AE001-6HC + LC) VH: QVQLVQSGAEVKKPGASVKVSCKASGYTFTNYGMNWVRQAPGQGLEWMGWINTYTGEPTVAQKFQGRFTFTLDTSTSTAYLELSSLRNEDTAVYFCARYGYSWAMDYWGQGTSVTVSS VL: DIQMTQSPSSLSASVGDRVTITCQASSSVSYMHWYQQKPGKAPKRLIYDTSKLASGVPSRFSGSGSGTDYTLTISSLQPEDIATYYCQQWSPYPPITFGAGTKLEIK
binds | binds | – | AE001-H2+L2 (antibody, V domains shown, Humanized form of 35NIDmAb with the same CDRs; The same doubt about the 'constant region' label applies as for AE001-H1+L1; also called AE001H2 + AE001L2; humanized antibody) VH: QVQLVQSGAEVKKPGASVKISCKASGYTFTNYGMNWVRQAPGQGLEWMGWINTYTGEPTFAQKFQGRFTFTLDTSTSTAYLEISSLRNEDTAVYFCARYGYSWAMDYWGQGTSVTVSS VL: DIQMTQSPSSLSASVGDRVTMTCQASSSVSYMHWYQQKPGKAPKRWIYDTSKLASGVPSRFSGSGSGTDYTLTISSMQPEDIATYYCQQWSSNPPITFGAGTKLEIK

Continued, binder first:

Binder | binding (human IFP35 protein [1]) | binding (human IFP35 protein [2]) | binding (human IFP35 protein [3])
AE001-H3+L3 (antibody, V domains shown, The same doubt about the 'constant region' label applies as for AE001-H1+L1; also called AE001H3 + AE001L3; humanized antibody) VH: QVQLVQSGAEVKKPGASVKVSCKASGYTFTNYGMNWVRQAPGQGLEWMGWINTYTGEPTVAQKFQGRFTFTLDTSTSTAYLELSSLRNEDTAVYFCARYGYSWAMDYWGQGTSVTVSS VL: DIQMTQSPSSLSASVGDRVTITCQASSSVSYMHWYQQKPGKAPKRLIYDTSKLASGVPSRFSGSGSGTDYTLTISSLQPEDIATYYCQQWSSNPPITFGAGTKLEIK | binds | binds | binds
AE001-H1+L1 (antibody, V domains shown, also called AE001H1 + AE001L1; humanized antibody) VH: QVQLVESGAEVKKPGASVKISCKASGYTFTNYGMNWVKQAPGQGLKWMGWINTYTGEPTFAQDFQGRFTFTLDTSASTAYLQISSLRNEDTAVYFCARYGYSWAMDYWGQGTSVTVSS VL: DIQMTQSPSSMSASVGDRVTMTCQASSSVSYMHWYQQKPGKSPKRWIYDTSKLASGVPSRFSGSGSGTDYTLTISSMQPEDIATYYCQQWSSNPPITFGAGTKLEIK | binds | binds | –
AE001-7 (antibody, human IgG1, V domains shown, Human IgG1; CDR mutant of AE001-H3+L3; also called AE001-6Hc + 7Lc; AE001-6HC + 7LC) VH: QVQLVQSGAEVKKPGASVKVSCKASGYTFTNYGMNWVRQAPGQGLEWMGWINTYTGEPTVAQKFQGRFTFTLDTSTSTAYLELSSLRNEDTAVYFCARYGYSWAMDYWGQGTSVTVSS VL: DIQMTQSPSSLSASVGDRVTITCQASSSVSYMHWYQQKPGKAPKRLIYDTSKLASGVPSRFSGSGSGTDYTLTISSLQPEDIATYYCQQWSSNSWSTFGAGTKLEIK | – | – | binds
AE001-9 (antibody, human IgG1, V domains shown, Human IgG1; CDR mutant of AE001-H3+L3; also called AE001-6Hc + 9Lc; AE001-6HC + 9LC) VH: QVQLVQSGAEVKKPGASVKVSCKASGYTFTNYGMNWVRQAPGQGLEWMGWINTYTGEPTVAQKFQGRFTFTLDTSTSTAYLELSSLRNEDTAVYFCARYGYSWAMDYWGQGTSVTVSS VL: DIQMTQSPSSLSASVGDRVTITCQASSSVSYMHWYQQKPGKAPKRLIYDTSKLASGVPSRFSGSGSGTDYTLTISSLQPEDIATYYCQQWSPRPPITFGAGTKLEIK | – | – | binds
AE001-8 (antibody, human IgG1, V domains shown, Human IgG1; CDR mutant of AE001-H3+L3; also called AE001-6Hc + 8Lc; AE001-6HC + 8LC) VH: QVQLVQSGAEVKKPGASVKVSCKASGYTFTNYGMNWVRQAPGQGLEWMGWINTYTGEPTVAQKFQGRFTFTLDTSTSTAYLELSSLRNEDTAVYFCARYGYSWAMDYWGQGTSVTVSS VL: DIQMTQSPSSLSASVGDRVTITCQASSSVSYMHWYQQKPGKAPKRLIYDTSKLASGVPSRFSGSGSGTDYTLTISSLQPEDIATYYCQQWSPLPPITFGAGTKLEIK | – | – | binds
